Some of these results come from one statement about several compounds together. At least one structure is not confirmed: it was looked up by name or label, or the drawing left a doubt.
System: DMBA-induced mammary carcinomas / KB implanted tumors
Test: Summary statement on Experiments 1 and 2 (DMBA and KB tumor models, model not told per compound)
Type: in vivo, rats / mice
Details: specified dosage regimens; model not given; GII>100% = tumor regression
Experimental: The inventors induced mammary carcinomas in female Sprague-Dawley rats (Mollegaard Breeding Center, DK-4236 Ejby) aged 50 days by administering a single dose of 20 mg 7,12-dimethylbenz(a)anthracene (DMBA) dissolved in 1 ml of olive oil to each rat by gavage. The first tumor appeared approximately one month after feeding the subject rats with DMBA.
The inventors used female, nu/nu mice (strain NMRI) aged 9-10 weeks and weighing 21-29 g (Breeder: Bomholtgard Breeding and Research Center, DK-8680 Ry) for testing. Tumor fragments consisting of the human KB tumors (ATCC; Rockville, Md.; cell line ATCC CCL 17 KB, human epidermoid larynx tumors), and having an average diameter of 2 mm, were implanted subcutaneously into the right side of the test mice.
Results from Experiments 1 and 2 were calculated and expressed in accordance with the growth inhibition index (GII) described in Voegeli, et al., “Selective cytostatic activity of Hexadecylphosphocholine against tumor cells in vitro leads to the establishment of an in vivo screening system for phospholipid analogues,” Int. J. Oncol., 2:161 (1993). The GII values from Experiments 1 and 2 are detailed in Table 1 below.

Compound	GII (growth inhibition index)
CCCCCCCCCCCCCCCCOP(=O)([O-])OC1CC2CCC(C1)[N+]2(C)C (centres unmarked) [Example 24, Hexadecyl 1,1-dimethyltropanio-4-yl phosphate]	> 100%
CCCCCCCCCCCCCCCCCCOP(=O)([O-])OC1CC2CCC(C1)[N+]2(C)C (centres unmarked) [Example 25, Octadecyl 1,1-dimethyltropanio-4-yl phosphate]	> 100%

Reference: patent US6479472B1, “Methods of using therapeutic phospholipid derivatives” (Asta Medica Aktiengesellschaft, priority 1993, dated 2002)
